In paper PMC8384837 one finds binding signal (log2 enrichment (interaction score)) data, which are given here for 1 sequence.

Substitutions are numbered along the chain they refer to. The list shows a part of the results. For some of these results: At the low end of the ranking, values are background and their order means little.

Common to all, as to settings: yeast three-hybrid, YBZ-1, SC-Leu-His + 0.5 mM 3-AT, 4 days
In assay [1] the target is T1, PUM1 PUF domain R2-AFS N899A + Y900F + Q903S (UniProt Q14671).
T1 sequence: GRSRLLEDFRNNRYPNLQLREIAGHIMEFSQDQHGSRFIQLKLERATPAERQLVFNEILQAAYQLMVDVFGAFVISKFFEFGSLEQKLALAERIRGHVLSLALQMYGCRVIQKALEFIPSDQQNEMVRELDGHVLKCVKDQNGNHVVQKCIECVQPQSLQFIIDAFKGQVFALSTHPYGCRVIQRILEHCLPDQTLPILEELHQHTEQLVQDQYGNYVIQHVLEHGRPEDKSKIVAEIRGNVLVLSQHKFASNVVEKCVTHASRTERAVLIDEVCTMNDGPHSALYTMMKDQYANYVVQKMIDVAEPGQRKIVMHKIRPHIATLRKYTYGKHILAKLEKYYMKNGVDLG

Assay [2] addresses T2, PUM1 PUF domain R2-AFW N899A + Y900F + Q903W (UniProt Q14671).
T2 sequence: T1 sequence with S76W

Assay [3] deals with T3, PUM1 PUF domain R2-ARP N899A + Y900R + Q903P (UniProt Q14671).
T3 sequence: T1 sequence with F73R, S76P

Assay [4] addresses T4, PUM1 PUF domain R2-AVA N899A + Y900V + Q903A (UniProt Q14671).
T4 sequence: T1 sequence with F73V, S76A

Assay [5] concerns the target T5, PUM1 PUF domain R2-AWH N899A + Y900W + Q903H (Homo sapiens) (UniProt Q14671).
T5 sequence: T1 sequence with F73W, S76H

Assay [6] deals with T6, PUM1 PUF domain R2-AWW N899A + Y900W + Q903W (UniProt Q14671).
T6 sequence: T1 sequence with F73W, S76W

Assay [7] has as its target T7, PUM1 PUF domain R2-AWY N899A + Y900W + Q903Y (UniProt Q14671).
T7 sequence: T1 sequence with F73W, S76Y

The target in assay [8] is T8, PUM1 PUF domain R2-AYW N899A + Q903W (UniProt Q14671).
T8 sequence: T1 sequence with F73Y, S76W

The target of assay [9] is T9, PUM1 PUF domain R2-CFP N899C + Y900F + Q903P (UniProt Q14671).
T9 sequence: T1 sequence with A72C, S76P

The target of assay [10] is T10, PUM1 PUF domain R2-CGI N899C + Y900G + Q903I (UniProt Q14671).
T10 sequence: T1 sequence with A72C, F73G, S76I

Assay [11] has as its target T11, PUM1 PUF domain R2-CYP N899C + Q903P (UniProt Q14671).
T11 sequence: T1 sequence with A72C, F73Y, S76P

The target in assay [12] is T12, PUM1 PUF domain R2-DRQ N899D + Y900R (UniProt Q14671).
T12 sequence: T1 sequence with A72D, F73R, S76Q

The target of assay [13] is T13, PUM1 PUF domain R2-DWC N899D + Y900W + Q903C (UniProt Q14671).
T13 sequence: T1 sequence with A72D, F73W, S76C

Assay [14] addresses T14, PUM1 PUF domain R2-DWE N899D + Y900W + Q903E (UniProt Q14671).
T14 sequence: T1 sequence with A72D, F73W, S76E

Assay [15] concerns the target T15, PUM1 PUF domain R2-DWI N899D + Y900W + Q903I (Homo sapiens) (UniProt Q14671).
T15 sequence: T1 sequence with A72D, F73W, S76I

Assay [16] deals with T16, PUM1 PUF domain R2-DWL N899D + Y900W + Q903L (UniProt Q14671).
T16 sequence: T1 sequence with A72D, F73W, S76L

Assay [17] has as its target T17, PUM1 PUF domain R2-EPW N899E + Y900P + Q903W (UniProt Q14671).
T17 sequence: T1 sequence with A72E, F73P, S76W

For assay [18], the target named is T18, PUM1 PUF domain R2-EWA N899E + Y900W + Q903A (UniProt Q14671).
T18 sequence: T1 sequence with A72E, F73W, S76A

Assay [19] deals with T19, PUM1 PUF domain R2-EWD N899E + Y900W + Q903D (UniProt Q14671).
T19 sequence: T1 sequence with A72E, F73W, S76D

Assay [20] concerns the target T20, PUM1 PUF domain R2-GFD N899G + Y900F + Q903D (UniProt Q14671).
T20 sequence: T1 sequence with A72G, S76D

Assay [21] concerns the target T21, PUM1 PUF domain R2-GWD N899G + Y900W + Q903D (UniProt Q14671).
T21 sequence: T1 sequence with A72G, F73W, S76D

For assay [22], the target named is T22, PUM1 PUF domain R2-GWF N899G + Y900W + Q903F (UniProt Q14671).
T22 sequence: T1 sequence with A72G, F73W, S76F

Regarding “GGCUAGAACUAGUGGAUCCCCCGGCGCCCGGCGGCUCGAGCCCGGGUAAGUGUAAACAGUCUGCAUGCCGCCGGGCGCCAUGCCUGCAGGUCGACUCUAGAAAACAUG”, the binding signal (log2 enrichment (interaction score)) in assay [1] is below -6.58; in [2] it was below -8.45; in assay [3], below -8.19; in [4], below -7.55; in assay [5] it was -1.24; in assay [6], below -7.76. Besides, the binding signal (log2 enrichment (interaction score)) in assay [7] is below -5.47; in assay [8] it was below -6.67; in [9], below -7.25; in [10], below -7.48; in [11] it was below -6.4; in assay [12] it was below -6.1. The binding signal (log2 enrichment (interaction score)) in [13] is below -5.88; in assay [14], below -7.06; in [15], -1.03; in assay [16], below -8.25; in [17], below -7.14; in [18], below -6.14. Besides, the binding signal (log2 enrichment (interaction score)) in [19] is below -6.34; in assay [20], below -7.94; in assay [21], below -7.14; in assay [22], below -8.32.
